# Experimental data as given in PubChem BioAssay AID1917 (Vanderbilt High Throughput Screening Facility, 2009).
# Sequences of proteins named here, by UniProt entry; tags and fusion partners are left off. A change or cut given only in a name is not applied to a line headed by its entry.
# UniProt P48048: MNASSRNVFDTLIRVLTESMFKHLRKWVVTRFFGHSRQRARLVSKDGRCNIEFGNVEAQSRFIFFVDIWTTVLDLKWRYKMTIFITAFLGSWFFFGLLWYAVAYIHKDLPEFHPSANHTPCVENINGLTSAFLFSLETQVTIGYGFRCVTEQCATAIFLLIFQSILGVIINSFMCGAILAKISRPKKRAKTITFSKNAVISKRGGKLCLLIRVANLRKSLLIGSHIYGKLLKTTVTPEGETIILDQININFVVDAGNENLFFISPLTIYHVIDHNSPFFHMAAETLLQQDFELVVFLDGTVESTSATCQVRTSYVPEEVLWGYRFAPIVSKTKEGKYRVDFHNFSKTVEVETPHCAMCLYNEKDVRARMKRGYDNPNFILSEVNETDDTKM
# Among all 3,000 compounds or so, about 1,600 (53%) were called active. The set was probably picked from earlier hits. This list was built around the results that the source calls inconclusive (neither active nor inactive); the mix of calls is not that of the screen.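 Rule for the calls: active = Flux at 10 µM at least 3 SD below or above vehicle control mean in one or both replicates; inconclusive = no clear call, values can overlap the other calls; inactive = the rest.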
# Biological target: ATP-sensitive inward rectifier potassium channel 1 (Homo sapiens) (UniProt P48048)
# Test: retested modulators of human Kir1.1 channel – cell-based, thallium flux, duplicate, resupplied hits, confirmation (AID 1917)
# Settings: ROMK thallium flux, fluorescence ratio; at 10 µM; active compounds read low
row,Structure (SMILES),normalized thallium flux (F/F0 slope)
1,CCC(C)c1cc(S(=O)(=O)N2CCOCC2)ccc1OC (stereo not given),inconclusive: 0.065
2,Cc1cc(Cl)ccc1OC(C)C(=O)Nc1ccccc1N1CCOCC1 (stereo not given),inconclusive: 0.0689
3,Oc1c(Br)cc(Cl)cc1C=Nc1ccccc1Br,inconclusive: 0.0985
4,O=C(NC1CCCCC1)[C@H](CSCc1ccccc1)N1Cc2ccccc2C1=O,inconclusive: 0.0694
5,COc1ccc(/C=C/C(=O)Nc2cccc(C(C)=O)c2)cc1,inconclusive: 0.0724
6,Nc1c(C=C2C=CC(=O)C=C2)c(=O)nc2snc(SCc3ccccc3)n12,inconclusive: 0.0701
7,O=c1oc2ccc3ccccc3c2cc1-c1nnc(-c2cccs2)o1,inconclusive: 0.0586
8,O=C(Nc1ccccc1)Nc1ccc(F)c([N+](=O)[O-])c1,inconclusive: 0.0685
9,CC(=O)n1cc(N(C(=O)CCl)c2ccccc2)c2ccccc21,inconclusive: 0.0631
10,O=C(O)CC(CNS(=O)(=O)c1ccccc1)c1ccccc1 (stereo not given),inconclusive: 0.0694
11,S=C(Nc1ccccc1)N1CCN(C(=S)Nc2ccccc2)CC1,inactive: 0.0871
12,COc1ccc(Cn2nc(-c3ccccc3)c(N3CCCCC3)cc2=O)cc1,inconclusive: 0.0696
13,Cc1nc(N)nc(N)c1/C=C/C(C)(C)c1ccc(Cl)cc1,active: 0.0639
14,N=c1n(Cc2ccccc2)c2ccccc2n1Cc1ccccc1,inconclusive: 0.0695
15,CCCNC(=O)Nc1nccs1,inconclusive: 0.0718
16,Clc1ccc(CSc2nnc(-c3cccnc3)n2Cc2ccco2)c(Cl)c1,inconclusive: 0.067
17,CC(=O)NS(=O)(=O)c1ccc(NC(=O)CSc2ccccc2)cc1,inactive: 0.0785
18,Cc1ccc(CNC(=O)CC2Sc3ccccc3NC2=O)cc1 (stereo not given),inactive: 0.086
19,COCC(=O)Nc1sc2c(c1C(=O)OC)C(C(=O)OC)CC2 (stereo not given),inactive: 0.0812
20,Cc1ccc2[nH]cc(C(=O)CCl)c2c1,active: 0.0554
21,CC(C)(C)C1CCc2c(sc(NC(=O)C3CC=CCC3C(=O)O)c2C#N)C1 (stereo not given),inconclusive: 0.0963
22,COc1ccc(OC)c(CNC(=O)CCCc2cn(C)c3ccccc23)c1,inconclusive: 0.071
23,Cc1ccc(-c2nc(CSCC(=O)NCCN3CCN(Cc4ccccc4)CC3)c(C)o2)cc1,inconclusive: 0.0695

row,Structure (SMILES),normalized thallium flux (F/F0 slope)
1,Cc1ccc(S(=O)(=O)N2CCC(=O)N(C(COCc3ccc(Cl)cc3)Cc3ccccc3)CC2)cc1 (stereo not given),inconclusive: 0.0685
2,Cc1ccc(CN2CCC(c3nc4ccc(Cl)cc4[nH]3)CC2)cc1,inconclusive: 0.0661
3,O=C(Cc1nc2ccccc2[nH]1)c1cccc([N+](=O)[O-])c1,inconclusive: 0.0671
4,Cc1cc(C)cc(OCCNC(=O)C(C)N2C(=O)c3ccccc3C2=O)c1 (stereo not given),inactive: 0.0827
5,Cc1ccc(N2CCN(C(=O)CN3C(=O)c4ccccc4C3=O)CC2)cc1,inactive: 0.0738
6,CCOc1ccc2c(c1)/C(=C(\C(Cl)=C(Cl)Cl)[N+](=O)[O-])N2,active: 0.0534
7,Cc1nc2ccccc2nc(=O)c1NNc1ccccc1,inconclusive: 0.0974
8,COc1ccc(OC)c(CN2CCN(Cc3cccc4ccccc34)CC2)c1,active: 0.0499
9,Cc1ccc(CN2C3CCCC2CC(NC(=O)c2ccc(C)cc2)C3)cc1 (stereo not given),active: 0.0558
10,Cc1cc(N2CCOCC2)ccc1/C=C1\NC(=O)N(CC(=O)Nc2ccccc2C)C1=O,inconclusive: 0.0688
11,Cc1ccc(S(=O)(=O)C2(S(=O)(=O)c3ccc(C)cc3)CCCC2)cc1,inactive: 0.0776
12,COc1ccc(C(=O)n2nc(C)cc2Nc2ccccc2)cc1,inconclusive: 0.0674
13,COc1ccc(S(=O)NC2CCCCC2)c(OC)c1C (stereo not given),inactive: 0.0748
14,COc1cc(/C=C2\CC/C(=C\c3ccc(OCCO)c(OC)c3)C2=O)ccc1OCCO,inconclusive: 0.0423
15,COC(=O)c1c(C)oc2ccc(NS(=O)(=O)c3cccs3)cc12,inconclusive: 0.0664
16,C=CC#CC1(O)CC(C)[N+](C)(C)CC1C (stereo not given),inactive: 0.0844
17,Cc1noc(C)c1CS(=O)(=O)c1ccc(Br)cc1,inactive: 0.0819
18,COc1ccc(C(=O)c2no[n+]([O-])c2C(=O)c2ccc(OC)cc2)cc1,inconclusive: 0.0726
19,CCOc1cccc2sc(N(CCCN(C)C)C(=O)Cc3ccccc3)nc12,active: 0.0568
20,CC1(C)CCc2cc(-c3ccnc(=S)[nH]3)ccc2O1,inactive: 0.0837
21,Cc1ccc(CC(=O)NCc2ccc(F)cc2)cc1,inactive: 0.0943
22,N#Cc1c(N)n(CCOC(=O)c2ccc(Cl)cc2)c2nc3ccccc3nc12,active: 0.0672
23,Cc1cc2c(ccc3c2no[n+]3[O-])nn1,inactive: 0.0715

row,Structure (SMILES),normalized thallium flux (F/F0 slope)
1,COc1ccc(NC(=O)c2cc(-c3cccc(OC)c3)on2)cc1,inactive: 0.0807
2,COc1cccc(N2CC(O)=C(c3nc4ccccc4s3)C2=N)c1,inconclusive: 0.0988
3,Fc1ccc(COc2ccc(Br)cc2CNCc2ccncc2)cc1,active: 0.0628
4,O=C(NC1CCCCCC1)C1CCCN(S(=O)(=O)c2cccs2)C1 (stereo not given),inconclusive: 0.0683
5,O=C(Nc1cccc(-c2cn3cccnc3n2)c1)c1ccc(Br)o1,inconclusive: 0.0723
6,N#Cc1nc(-c2cccc3ccccc23)oc1NCCN1CCCCC1,active: 0.0647
7,O=C(N1CCN(c2ccccn2)CC1)N1c2ccccc2Sc2ccccc21,inactive: 0.0898
8,CN(CCOc1ccc(Cl)cc1)c1ccc(S(=O)(=O)N2CCCCC2)cn1,inconclusive: 0.0708
9,Cc1ccc(NS(=O)(=O)c2cc3c4c(cccc4c2)C(=O)NC3=O)cc1,inconclusive: 0.0706
10,CCC(c1nnnn1Cc1ccc(F)cc1)N1CCN(C2CCCCC2)CC1 (stereo not given),inconclusive: 0.0725
11,NC(=O)c1ccccc1N(Cc1ccccc1)S(=O)(=O)c1ccccc1,inactive: 0.0757
12,Cc1c(C(=O)O)cccc1-c1ccc(/C=N/Nc2ccc(Br)cc2)o1,active: 0.1
13,Cc1ccc(C(C)C)c(OCc2nn(CC(=O)c3ccc(Cl)cc3)c3[n+]2CCCCC3)c1,active: 0.049
14,COc1ccc(-c2cc(C(=O)Nc3cc(C)nn3-c3ccccc3)no2)cc1OC,inactive: 0.0766
15,Cc1ccc([N+](=O)[O-])c(OCCn2cnc3ccccc32)c1,inconclusive: 0.0683
16,COC(=O)c1c(C)nc(C)c2c(=O)oc3ccccc3c12,inconclusive: 0.0707
17,Cc1cn2c(-c3ccc(Cl)cc3)nnc2s1,inactive: 0.0708
18,CCn1c(=O)c([N+](=O)[O-])c(Cl)c2ccccc21,active: 0.0459
19,Cc1cc(C(=O)OCC(=O)NCc2ccco2)c(C)n1-c1ccc(F)cc1,inactive: 0.0899
20,Cc1ccc(-n2c(C)c([N+](=O)[O-])c3ccc(O)c(CN(C)C)c32)cc1,active: 0.0485
21,Cc1ccccc1Cn1cc(C)c(=O)[nH]c1=O,inactive: 0.0734
22,CCC(NC(=O)NCc1ccc2c(c1)OCO2)(C(F)(F)F)C(F)(F)F,inactive: 0.0861
23,CCCOc1ccc(-c2cc(C(=O)NCC3CCCO3)c3ccccc3n2)cc1 (stereo not given),inconclusive: 0.0688

# An excerpt of these results, as tab-separated lines.
row	Structure (SMILES)	normalized thallium flux (F/F0 slope)
14	N=c1n(Cc2ccccc2)c2ccccc2n1Cc1ccccc1	inconclusive: 0.0695
15	CCCNC(=O)Nc1nccs1	inconclusive: 0.0718
23	Cc1ccc(-c2nc(CSCC(=O)NCCN3CCN(Cc4ccccc4)CC3)c(C)o2)cc1	inconclusive: 0.0695
2	Cc1ccc(CN2CCC(c3nc4ccc(Cl)cc4[nH]3)CC2)cc1	inconclusive: 0.0661
9	Cc1ccc(CN2C3CCCC2CC(NC(=O)c2ccc(C)cc2)C3)cc1 (stereo not given)	active: 0.0558
10	CCC(c1nnnn1Cc1ccc(F)cc1)N1CCN(C2CCCCC2)CC1 (stereo not given)	inconclusive: 0.0725

# (further entries)

row,Structure (SMILES),normalized thallium flux (F/F0 slope)
1,O=C(CSc1c2c(nc3cc(Cl)ccc13)CCCC2)NCCCN1CCOCC1,inactive: 0.0806
2,COC(=O)c1cc(C(=O)N2CCN(c3cccc(Cl)c3)CC2)cc([N+](=O)[O-])c1,inconclusive: 0.0963
3,CN(C)S(=O)(=O)c1ccc(C(=O)Nc2nc(-c3ccccc3)c(C(=O)c3ccccc3)s2)cc1,inactive: 0.0896
4,Cc1ccccc1N(CC(=O)NC1CCCC1)C(=O)c1csnn1,inconclusive: 0.0701
5,Cc1cccc(C(=O)Nc2ccc(C(=O)/C=C/c3cccnc3)cc2)c1,inconclusive: 0.0703
6,CCSC1(SCC)N=C(N)C2(C#N)C(c3ccc(F)cc3)C12C#N (stereo not given),inconclusive: 0.0675
7,O=C(c1cccc([N+](=O)[O-])c1)c1ccccn1,inconclusive: 0.0702
8,O=C(O)c1ccc(COc2ccc(Cl)cc2)o1,inconclusive: 0.0711
9,Cc1c(Cl)cccc1NC(=O)CNC(=O)c1ccc(F)cc1,inconclusive: 0.0703
10,Oc1ccc(Br)cc1C=Nc1cccn2cc(-c3ccccc3)nc12,inconclusive: 0.0713
11,Cc1cc(C(=O)OCC(=O)N2c3ccccc3CC2C)c(C)o1 (stereo not given),inconclusive: 0.0688
12,N#Cc1nc(-c2cccs2)oc1NCc1ccccc1,active: 0.0541
13,O=C(C1CC(Cl)CN1S(=O)(=O)c1ccc(Cl)cc1)N1CCOCC1 (stereo not given),inactive: 0.0869
14,CCOC(=O)C1=C(N)OC2=C(C(=O)CC(C)(C)C2)C1c1cc(CSc2nnnn2C)cs1 (stereo not given),inconclusive: 0.0711
15,CCOC(=O)N1CCN(C(=O)COc2ccc(Cl)c(C)c2)CC1,active: 0.0584
16,CCCc1nc(SCC(=O)N2CCC(Cc3ccccc3)CC2)c2c(=O)n(C)c(=O)n(C)c2n1,inconclusive: 0.064
17,Cc1cc(C)c2[nH]c(=O)c(CN(Cc3ccc4c(c3)OCO4)Cc3nnnn3C3CCCC3)cc2c1,inconclusive: 0.0636
18,O=C(c1ccncc1)c1ccc(N2CCN(C3CC(=O)N(Cc4ccccc4)C3=O)CC2)cc1 (stereo not given),inconclusive: 0.0638
19,CCc1ccc(-n2c(SCC(=O)Nc3cccc(S(=O)(=O)NC4=NCCCCC4)c3)nc3ccccc3c2=O)cc1,inconclusive: 0.0706
20,Cc1ccc(S(=O)(=O)N2CCC(=O)N(C(COCc3ccc(Cl)c(Cl)c3)Cc3ccccc3)CC2)cc1 (stereo not given),active: 0.0615
21,CCn1c(SCC(=O)Nc2ccccc2N2CCCCC2)nc2c1c(=O)n(C)c(=O)n2C,inactive: 0.0741

# Two entries drawn at random from the list so far:
row,Structure (SMILES),normalized thallium flux (F/F0 slope)
18,O=C(c1ccncc1)c1ccc(N2CCN(C3CC(=O)N(Cc4ccccc4)C3=O)CC2)cc1 (stereo not given),inconclusive: 0.0638
20,Cc1ccc(S(=O)(=O)N2CCC(=O)N(C(COCc3ccc(Cl)c(Cl)c3)Cc3ccccc3)CC2)cc1 (stereo not given),active: 0.0615
